Results are given in words; binding and its absence hold for the method and conditions named. Binding seen in cells or lysates may run through a third protein. A yes stands for co-enrichment or nearness to the bait. Other partners may have been found. Where a sequence is shown, tags or fusion partners need not be part of it.
Molecular target: T1, HA-tagged TMC6 (mouse) (UniProt Q7TN60)
T1 sequence: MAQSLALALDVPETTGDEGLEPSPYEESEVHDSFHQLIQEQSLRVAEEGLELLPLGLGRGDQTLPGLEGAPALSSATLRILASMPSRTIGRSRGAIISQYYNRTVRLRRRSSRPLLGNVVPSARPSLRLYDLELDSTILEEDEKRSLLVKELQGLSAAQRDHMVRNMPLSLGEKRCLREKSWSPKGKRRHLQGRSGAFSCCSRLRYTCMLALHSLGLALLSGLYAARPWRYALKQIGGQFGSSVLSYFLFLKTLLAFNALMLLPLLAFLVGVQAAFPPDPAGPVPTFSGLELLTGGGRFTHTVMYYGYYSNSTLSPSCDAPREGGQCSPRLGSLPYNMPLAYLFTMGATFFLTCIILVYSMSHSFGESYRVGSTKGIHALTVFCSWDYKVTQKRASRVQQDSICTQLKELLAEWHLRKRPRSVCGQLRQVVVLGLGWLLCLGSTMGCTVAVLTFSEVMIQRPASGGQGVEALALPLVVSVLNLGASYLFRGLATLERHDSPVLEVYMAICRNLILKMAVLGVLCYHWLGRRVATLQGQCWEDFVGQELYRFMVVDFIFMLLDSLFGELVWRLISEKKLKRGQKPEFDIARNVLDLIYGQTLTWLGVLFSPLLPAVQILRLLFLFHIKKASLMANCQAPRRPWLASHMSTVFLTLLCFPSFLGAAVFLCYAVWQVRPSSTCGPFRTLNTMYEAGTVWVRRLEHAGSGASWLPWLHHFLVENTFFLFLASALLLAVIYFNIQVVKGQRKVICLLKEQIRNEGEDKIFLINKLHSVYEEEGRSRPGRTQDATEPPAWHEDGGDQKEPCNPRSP
Test: affinity purification with mass spectrometry; IP with antibody against HA from lysate of ND7/23 cells overexpressing 2HA-TMC6, then mass spectrometry

By UniProt entry, the sequences of proteins in these tests, tags left out.
UniProt P21279: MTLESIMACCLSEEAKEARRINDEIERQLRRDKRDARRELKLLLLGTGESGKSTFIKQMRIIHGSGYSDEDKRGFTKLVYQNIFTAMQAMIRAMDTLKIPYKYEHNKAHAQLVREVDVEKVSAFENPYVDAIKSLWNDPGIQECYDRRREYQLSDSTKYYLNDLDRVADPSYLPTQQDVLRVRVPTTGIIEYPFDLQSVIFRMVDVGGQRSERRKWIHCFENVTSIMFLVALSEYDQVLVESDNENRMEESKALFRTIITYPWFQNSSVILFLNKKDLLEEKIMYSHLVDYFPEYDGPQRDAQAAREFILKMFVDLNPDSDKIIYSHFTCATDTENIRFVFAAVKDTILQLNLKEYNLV

Gαq (endogenous, ND7/23 cells) (from UniProt P21279 1-359)
binding: binds
